In paper PMC8457831, “Structural basis for diguanylate cyclase activation by its binding partner in Pseudomonas aeruginosa” (eLife, 2021):
No constants are given. Whether binding was seen depends on the method and setting. Sequences can lack the tags named with a protein.

Molecular target: SiaC (sumo-His tag removed) (Pseudomonas aeruginosa)
Experiment: SEC-MALS; single proteins: SiaC at 1.5 mg/ml, SiaD at 8 mg/ml, WTC-030S5 column, 20 mM HEPES pH 7.0, 150 mM NaCl, DTT; both purified

B1: SiaC (sumo-His tag removed) (protein, UniProt A0A072ZHB4 1-126)
chain: MSDLHIPGTQSTPAIQGDWQAGRLSMQGDSYPENSYELFGQVIDWVERFLADGQRPLELDLRLLYLNTSSIKAMMDILDLLEEAHQGGRPVSLRWHYDRRNERVAELAEEFREDCSFPFAIQAHDE
  binding: no binding (tested: 1.5 mg/ml)
